Among the data in publication PMC12217353 are binding values, retold here.

By UniProt entry, the sequences of proteins in these tests, tags left out. Where a name states a change or a piece, a line headed by the entry shows the natural chain unless it says otherwise.
UniProt P13569: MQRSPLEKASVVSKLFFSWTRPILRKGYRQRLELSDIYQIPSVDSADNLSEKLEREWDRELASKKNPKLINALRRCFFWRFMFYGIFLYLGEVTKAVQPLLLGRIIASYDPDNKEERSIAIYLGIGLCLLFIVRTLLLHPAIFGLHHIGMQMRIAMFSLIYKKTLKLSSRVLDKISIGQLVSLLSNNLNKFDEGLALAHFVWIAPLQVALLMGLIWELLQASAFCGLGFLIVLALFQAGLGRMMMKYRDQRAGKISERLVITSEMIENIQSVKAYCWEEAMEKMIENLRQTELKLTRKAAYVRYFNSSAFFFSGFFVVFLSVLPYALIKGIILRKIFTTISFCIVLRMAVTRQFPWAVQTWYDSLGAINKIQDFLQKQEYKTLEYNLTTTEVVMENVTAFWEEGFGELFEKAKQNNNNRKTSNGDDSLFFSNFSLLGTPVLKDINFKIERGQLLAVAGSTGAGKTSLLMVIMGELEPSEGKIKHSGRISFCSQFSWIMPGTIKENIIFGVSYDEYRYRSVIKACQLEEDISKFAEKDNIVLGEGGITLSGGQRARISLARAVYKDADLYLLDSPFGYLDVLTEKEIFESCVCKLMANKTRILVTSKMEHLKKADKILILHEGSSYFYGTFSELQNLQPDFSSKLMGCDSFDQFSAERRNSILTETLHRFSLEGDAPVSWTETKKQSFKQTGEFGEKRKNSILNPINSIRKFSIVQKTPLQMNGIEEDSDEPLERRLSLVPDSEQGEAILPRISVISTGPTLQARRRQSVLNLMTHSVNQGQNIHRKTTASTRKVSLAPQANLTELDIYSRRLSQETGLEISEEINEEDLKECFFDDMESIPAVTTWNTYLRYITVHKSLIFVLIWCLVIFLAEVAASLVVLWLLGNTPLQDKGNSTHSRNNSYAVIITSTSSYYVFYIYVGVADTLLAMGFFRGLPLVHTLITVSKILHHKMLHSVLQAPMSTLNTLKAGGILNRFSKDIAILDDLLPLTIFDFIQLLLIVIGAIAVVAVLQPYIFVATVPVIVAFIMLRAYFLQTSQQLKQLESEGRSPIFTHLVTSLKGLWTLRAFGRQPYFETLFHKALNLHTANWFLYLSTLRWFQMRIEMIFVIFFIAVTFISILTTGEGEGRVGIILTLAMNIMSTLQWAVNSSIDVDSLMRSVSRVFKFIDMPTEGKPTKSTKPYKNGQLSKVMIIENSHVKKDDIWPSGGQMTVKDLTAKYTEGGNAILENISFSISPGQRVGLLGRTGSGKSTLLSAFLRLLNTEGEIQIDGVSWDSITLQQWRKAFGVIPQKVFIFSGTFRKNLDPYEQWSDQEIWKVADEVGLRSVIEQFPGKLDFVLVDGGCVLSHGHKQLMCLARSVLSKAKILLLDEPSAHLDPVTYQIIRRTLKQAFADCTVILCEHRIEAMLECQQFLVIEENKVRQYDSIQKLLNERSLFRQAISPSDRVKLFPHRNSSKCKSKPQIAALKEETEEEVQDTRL
UniProt A0FGR9: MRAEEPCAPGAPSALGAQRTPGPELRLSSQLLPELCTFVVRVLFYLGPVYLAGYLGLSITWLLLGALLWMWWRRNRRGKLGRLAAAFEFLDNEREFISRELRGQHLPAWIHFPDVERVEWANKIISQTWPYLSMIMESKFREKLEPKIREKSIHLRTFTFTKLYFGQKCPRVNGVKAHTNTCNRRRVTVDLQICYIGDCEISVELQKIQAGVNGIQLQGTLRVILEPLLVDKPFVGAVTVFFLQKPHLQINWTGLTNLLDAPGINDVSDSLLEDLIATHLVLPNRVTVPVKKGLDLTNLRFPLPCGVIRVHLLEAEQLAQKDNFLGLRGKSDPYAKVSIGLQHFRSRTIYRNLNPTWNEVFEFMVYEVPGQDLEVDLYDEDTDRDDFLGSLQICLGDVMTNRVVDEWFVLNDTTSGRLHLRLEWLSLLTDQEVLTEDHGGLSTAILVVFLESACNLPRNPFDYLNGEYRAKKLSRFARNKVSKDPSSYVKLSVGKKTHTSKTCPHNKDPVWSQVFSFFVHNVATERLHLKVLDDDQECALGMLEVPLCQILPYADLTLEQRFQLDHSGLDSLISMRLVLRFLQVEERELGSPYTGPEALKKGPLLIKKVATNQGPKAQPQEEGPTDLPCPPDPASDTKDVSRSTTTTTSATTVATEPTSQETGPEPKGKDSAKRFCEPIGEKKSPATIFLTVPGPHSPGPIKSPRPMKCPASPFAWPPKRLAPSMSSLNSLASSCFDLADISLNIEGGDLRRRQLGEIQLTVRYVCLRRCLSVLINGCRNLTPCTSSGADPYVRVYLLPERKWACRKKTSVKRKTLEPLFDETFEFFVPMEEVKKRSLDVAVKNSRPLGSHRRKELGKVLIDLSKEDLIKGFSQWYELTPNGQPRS

Results are given in words; binding and its absence hold for the method and conditions named. Binding seen in cells or lysates may run through a third protein. Binding can be weak; no strength is given.

This experiment deals with CFTR-GFP (UniProt P13569). The experiment is described as follows: co-IP; lysates of transfected HEK293T cells (PBS with 1% Triton X-100, phosphatase and protease inhibitors, pH 7.4); antibodies overnight at 4 °C, Sepharose beads for 4 h, three washes, blots; some cells co-expressing E-Syt3 or E3C2C, or depleted of PI(4,5)P2 (FRB + FKBP-5PIPase, 0.5 µM rapamycin for 8 min).

For “E-Syt3(R852A/R853A/K854A) (from UniProt A0FGR9)”, the binding result is recorded as “binds weakly”.
